In PubChem BioAssay AID230 (DTP/NCI, 2004):
The list shows only some results of the screen, not a fair sample: its compounds were picked by chemical class. Not every dose and run of a compound is shown. T/C gives the treated animals as a percentage of the vehicle group. Where survival is the endpoint, this PubChem deposit counts one and a half times the control or more as active, and values a quarter to a half above the control carry no call in these data; other NCI protocols may use other cut-offs. Some T/C values are marked as having no survivor count here; that says nothing about deaths at the dose. Schedule codes are those of the source, taken here to give the interval after Q, in days (D) or hours (H), and the number of doses after X. Some doses were run more than once; their values stand side by side, smallest first.

System: C3H/He mice, Gardner lymphosarcoma 6C3HED ip, survival T/C
Assay: NCI In Vivo Anticancer Drug Screen. Data for tumor model Lymphosarcoma Gardner 6C3HED (intraperitoneal) in C3H/He mice
Conditions: T/C endpoint: survival time, mean or median, schedule: Q01DX010 (ip), vehicle: saline, higher T/C = longer survival
Protocol: The antitumor activity of compounds was measured in mice bearing transplantable tumors. Survival or tumor size were measured and the results are expressed as the measurement made in the treated group (T) divided by the measurement made in the vehicle treated control group (C). The tumor model used in this assay is Lymphosarcoma Gardner 6C3HED (intraperitoneal) in C3H/He mice

Compound: ClCCN(CCCl)Cc1nc2ccccc2[nH]1
- T/C (dose: 2.5 mg/kg/injection): 113 % of control [survivor count not shown]
- T/C (dose: 5.0 mg/kg/injection): 166 % of control [survivor count not shown]
- T/C (dose: 10.0 mg/kg/injection): 103 % of control [survivor count not shown]

Compound: NC(Cc1ccccc1N(CCCl)CCCl)C(=O)O (configuration not stated)
- T/C (dose: 0.25 mg/kg/injection): 132 [survivor count not shown] and 157 % of control [survivor count not shown]
- T/C (dose: 0.5 mg/kg/injection): 196 [survivor count not shown] and 300 % of control [survivor count not shown]
- T/C (dose: 1.0 mg/kg/injection): 178 [survivor count not shown] and 207 % of control [survivor count not shown]

Compound: NC(Cc1cccc(N(CCCl)CCCl)c1)C(=O)O (configuration not stated)
- T/C (dose: 0.63 mg/kg/injection): 123 [survivor count not shown] and 212 % of control [survivor count not shown]
- T/C (dose: 1.25 mg/kg/injection): 138 [survivor count not shown] and 225 % of control [survivor count not shown]
- T/C (dose: 2.5 mg/kg/injection): 87 [survivor count not shown] and 103 % of control [survivor count not shown]

Compound: NC1CCCCC1.NP(=O)(O)N(CCCl)CCCl
- T/C (dose: 15.6 mg/kg/injection): 147 % of control [survivor count not shown]
- T/C (dose: 31.3 mg/kg/injection): 271 % of control [survivor count not shown]
- T/C (dose: 62.5 mg/kg/injection): 128 % of control [survivor count not shown]
